Assay results taken from paper PMC7986551.
No constants are given. Whether binding was seen depends on the method and setting. In cells and extracts the contact can be indirect. Some results given as binding are weak or reduced against the parent protein; the word gives no strength. For some assays here: Sequences can lack the tags named with a protein.

The chains behind the UniProt entries cited, without tags or fusion partners.
UniProt P17676: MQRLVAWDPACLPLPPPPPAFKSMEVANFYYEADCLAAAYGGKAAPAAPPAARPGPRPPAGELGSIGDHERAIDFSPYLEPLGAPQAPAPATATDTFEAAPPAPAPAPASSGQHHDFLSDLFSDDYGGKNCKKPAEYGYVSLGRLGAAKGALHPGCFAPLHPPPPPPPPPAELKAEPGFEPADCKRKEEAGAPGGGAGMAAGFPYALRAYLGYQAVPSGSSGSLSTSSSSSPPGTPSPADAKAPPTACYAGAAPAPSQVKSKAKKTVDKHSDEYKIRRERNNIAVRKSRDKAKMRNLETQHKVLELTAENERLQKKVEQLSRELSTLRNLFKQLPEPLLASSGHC

How the values were obtained:
Flag-tagged C/EBPβ = Flag-tagged C/EBPβ (UniProt P17676); assay: co-IP; anti-Flag antibody immunoprecipitates Flag-C/EBPβ from whole cell extracts of HEK293T cells co-expressing V5-ATAD2 and Flag-C/EBPβ; Protein A/G PLUS-Agarose, 4 °C overnight, 5 washes with PBS, western blot
[1] = target: endogenous C/EBPβ (human (endogenous in KYSE510)) (UniProt P17676); assay: co-IP; endogenous proteins in KYSE510 cell lysate, immunoprecipitation with anti-C/EBPβ antibody (IgG as control); Protein A/G PLUS-Agarose, 4 °C overnight, 5 washes with PBS, western blot

Row | Binder | binding (Flag-tagged C/EBPβ) | binding [1]
1 | V5-tagged ATAD2 (protein, UniProt Q6PL18 1-1390) MVVLRSSLELHNHSAASATGSLDLSSDFLSLEHIGRRRLRSAGAAQKKPAATTAKAGDGSSVKEVETYHRTRALRSLRKDAQNSSDSSFEKNVEITEQLANGRHFTRQLARQQADKKKEEHREDKVIPVTRSLRARNIVQSTEHLHEDNGDVEVRRSCRIRSRYSGVNQSMLFDKLITNTAEAVLQKMDDMKKMRRQRMRELEDLGVFNETEESNLNMYTRGKQKDIQRTDEETTDNQEGSVESSEEGEDQEHEDDGEDEDDEDDDDDDDDDDDDDDEDDEDEEDGEEENQKRYYLRQRKATVYYQAPLEKPRHQRKPNIFYSGPASPARPRYRLSSAGPRSPYCKRMNRRRHAIHSSDSTSSSSSEDEQHFERRRKRSRNRAINRCLPLNFRKDELKGIYKDRMKIGASLADVDPMQLDSSVRFDSVGGLSNHIAALKEMVVFPLLYPEVFEKFKIQPPRGCLFYGPPGTGKTLVARALANECSQGDKRVAFFMRKGADCLSKWVGESERQLRLLFDQAYQMRPSIIFFDEIDGLAPVRSSRQDQIHSSIVSTLLALMDGLDSRGEIVVIGATNRLDSIDPALRRPGRFDREFLFSLPDKEARKEILKIHTRDWNPKPLDTFLEELAENCVGYCGADIKSICAEAALCALRRRYPQIYTTSEKLQLDLSSINISAKDFEVAMQKMIPASQRAVTSPGQALSTVVKPLLQNTVDKILEALQRVFPHAEFRTNKTLDSDISCPLLESDLAYSDDDVPSVYENGLSQKSSHKAKDNFNFLHLNRNACYQPMSFRPRILIVGEPGFGQGSHLAPAVIHALEKFTVYTLDIPVLFGVSTTSPEETCAQVIREAKRTAPSIVYVPHIHVWWEIVGPTLKATFTTLLQNIPSFAPVLLLATSDKPHSALPEEVQELFIRDYGEIFNVQLPDKEERTKFFEDLILKQAAKPPISKKKAVLQALEVLPVAPPPEPRSLTAEEVKRLEEQEEDTFRELRIFLRNVTHRLAIDKRFRVFTKPVDPDEVPDYVTVIKQPMDLSSVISKIDLHKYLTVKDYLRDIDLICSNALEYNPDRDPGDRLIRHRACALRDTAYAIIKEELDEDFEQLCEEIQESRKKRGCSSSKYAPSYYHVMPKQNSTLVGDKRSDPEQNEKLKTPSTPVACSTPAQLKRKIRKKSNWYLGTIKKRRKISQAKDDSQNAIDHKIESDTEETQDTSVDHNETGNTGESSVEENEKQQNASESKLELRNNSNTCNIENELEDSRKTTACTELRDKIACNGDASSSQIIHISDENEGKEMCVLRMTRARRSQVEQQQLITVEKALAILSQPTPSLVVDHERLKNLLKTVVKKSQNYNIFQLENLYAVISQCIYRHRKDHDKTSLIQKMEQEVENFSCSR | binds | –
2 | endogenous ATAD2 (protein, UniProt Q6PL18 1-1390) MVVLRSSLELHNHSAASATGSLDLSSDFLSLEHIGRRRLRSAGAAQKKPAATTAKAGDGSSVKEVETYHRTRALRSLRKDAQNSSDSSFEKNVEITEQLANGRHFTRQLARQQADKKKEEHREDKVIPVTRSLRARNIVQSTEHLHEDNGDVEVRRSCRIRSRYSGVNQSMLFDKLITNTAEAVLQKMDDMKKMRRQRMRELEDLGVFNETEESNLNMYTRGKQKDIQRTDEETTDNQEGSVESSEEGEDQEHEDDGEDEDDEDDDDDDDDDDDDDDEDDEDEEDGEEENQKRYYLRQRKATVYYQAPLEKPRHQRKPNIFYSGPASPARPRYRLSSAGPRSPYCKRMNRRRHAIHSSDSTSSSSSEDEQHFERRRKRSRNRAINRCLPLNFRKDELKGIYKDRMKIGASLADVDPMQLDSSVRFDSVGGLSNHIAALKEMVVFPLLYPEVFEKFKIQPPRGCLFYGPPGTGKTLVARALANECSQGDKRVAFFMRKGADCLSKWVGESERQLRLLFDQAYQMRPSIIFFDEIDGLAPVRSSRQDQIHSSIVSTLLALMDGLDSRGEIVVIGATNRLDSIDPALRRPGRFDREFLFSLPDKEARKEILKIHTRDWNPKPLDTFLEELAENCVGYCGADIKSICAEAALCALRRRYPQIYTTSEKLQLDLSSINISAKDFEVAMQKMIPASQRAVTSPGQALSTVVKPLLQNTVDKILEALQRVFPHAEFRTNKTLDSDISCPLLESDLAYSDDDVPSVYENGLSQKSSHKAKDNFNFLHLNRNACYQPMSFRPRILIVGEPGFGQGSHLAPAVIHALEKFTVYTLDIPVLFGVSTTSPEETCAQVIREAKRTAPSIVYVPHIHVWWEIVGPTLKATFTTLLQNIPSFAPVLLLATSDKPHSALPEEVQELFIRDYGEIFNVQLPDKEERTKFFEDLILKQAAKPPISKKKAVLQALEVLPVAPPPEPRSLTAEEVKRLEEQEEDTFRELRIFLRNVTHRLAIDKRFRVFTKPVDPDEVPDYVTVIKQPMDLSSVISKIDLHKYLTVKDYLRDIDLICSNALEYNPDRDPGDRLIRHRACALRDTAYAIIKEELDEDFEQLCEEIQESRKKRGCSSSKYAPSYYHVMPKQNSTLVGDKRSDPEQNEKLKTPSTPVACSTPAQLKRKIRKKSNWYLGTIKKRRKISQAKDDSQNAIDHKIESDTEETQDTSVDHNETGNTGESSVEENEKQQNASESKLELRNNSNTCNIENELEDSRKTTACTELRDKIACNGDASSSQIIHISDENEGKEMCVLRMTRARRSQVEQQQLITVEKALAILSQPTPSLVVDHERLKNLLKTVVKKSQNYNIFQLENLYAVISQCIYRHRKDHDKTSLIQKMEQEVENFSCSR | – | binds
